To fix the notation:
B1: glmS ribozyme (parent)
chain: AUAAAAGCGCCAGAACUACAGAAAUGUAGUUGACGAGGAGGAGGUUUAUCGAAUUUUCGGCGGAUGCCUCCAAA

± gives the standard error. Many entries were measured with a wide error.

The variants in one data set derive from B1. Description: KM; higher = weaker cofactor use; RNA array. Particulars: with glucosamine-6-phosphate. Summed up:
(§1)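 Glucosamine-6-phosphate in HEPES/KCl/Mg(OAc)2 buffer, at 40 μM to 10 mM, was flowed over barcoded ribozyme variants transcribed in situ by E. coli RNA polymerase on sequenced MiSeq chips. Tracking was through a hybridised Cy3 probe at 37 °C. kobs, kcat and KM came from exponential decay fits and weighted Michaelis–Menten fits of normalised per-tile medians.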
As a reminder, the KM is the substrate concentration at which the rate is half of its maximum. For AUAAAAGCGCCAGAACUACAGAAAUGUAGUUCACGAGGAGGAGGUUUAUCGAAUUUGCGGCGGAUGCCUCCAAA [G32C U57G], the KM was found to be 86 ± 57 µM. With AUAAAAGCGCCAGAACUACAGAAAUGUAGUUGACGAGGGGGAGGUUUAUCGAGUUUUCGGCGGAUGGCUCCAAA [A39G A53G C67G], the Michaelis-Menten constant (KM) was 580 ± 370 µM.

Consider AUAAAAGCGCCAGAACUACAGAAAUGUAGUUGACGUGGAGGAGGUUUAUCGAAUUUUCGGCGGAUGUCUCCAAA [A36U C67U], for which the KM was 44.2 ± 40 µM. Same read-out and setting: to AUAAAAGCGCCAGAACUACAGAAAUGUAGUUGACGAGGGGGAGUUUUAUCGAAUUUUCGGCGGAUGCCUCCAAA [A39G G44U] belongs 6340 ± 3000 µM; to AUAAAAGCGCCAGAACUACAGAAAUGUAGUUGACGAGAAGGAGGUUUAUCGAAUCUUCGGCGGAUGCCUCCAAA [G38A U55C], 37.7 ± 15 µM.

Take AUAAAAGCGCCAGAACUACAGAAAUGUAGUUAACGAGGAGGAGGUAUAUCGAAUUUUCGGCGGAUGCCUCCAAA [G32A U46A]: the KM worked out at 16900 ± 850 µM. In the case of AUAAAAGCGCCAGAACUACAGAAAUGUAGUUCACGAGGAGGAGGUUUAUCGAUUUUUCGGCGGAUGCCUCCAAA [G32C A53U], the KM stood at 7510 ± 930 µM.

Turning to AUAAAAGCGCCAGAACUACAGAAAUGUAGUUGUCGAGGAGGAGGUUUAUCGAAUUUUCGGCGGAUGUCUCCAAA [A33U C67U], the KM worked out at 1110 ± 1100 µM. Same read-out and setting: to AUAAAAGCGCCAGAACUACAGAAAUGUAGUUGACGAAGAGGAUGUUUAUCGAAUUUUCGGCGGAUGCCUCCAAA [G37A G43U] belongs 620 ± 300 µM.

Consider AUAAAAGCGCCAGAACUACAGAAAUGUAGUUUACGAGGAGGAGGUUUAUCGAAUUUUCGGCGGGUGCCUCCAAA [G32U A64G], for which the KM was 3130 ± 1100 µM. On the same count and under the same terms, the same measure for AUAAAAGCGCCAGAACUACAGAAAUGUAGUUCACGAGGAGGAGGUUUAUCGAAUGUUCGGCGGAUGCCUCCAAA [G32C U55G]: 10500 ± 1800 µM. On the same count and under the same terms, to AUAAAAGCGCCAGAACUACAGAAAUGUAGUUGACGAGGCGGAGGUUUAUCGAAUUUUCGGCGGAUGCCUUCAAA [A39C C70U] belongs 1210 ± 530 µM.

Regarding AUAAAAGCGCCAGAACUACAGAAAUGUAGUGGACGAGGAGGAGGUAUAUCGAAUUUUCGGCGGAUGCCUCCAAA [U31G U46A], the KM was determined as 991 ± 620 µM. The same measure, in the same setting: to AUAAAAGCGCCAGAACUACAGAAAUGUAGUUGACGACGAGGAGGUUUAUCGAACUUUCGGCGGAUGCCUCCAAA [G37C U54C] belongs 9990 ± 8200 µM; to AUAAAAGCGCCAGAACUACAGAAAUGUAGUUGACGAGGCGGAGGUGUAUCGAAUUUUCGGCGGAUGCCUCCAAA [A39C U46G], 2000 ± 420 µM; to AUAAAAGCGCCAGAACUACAGAAAUGUAGUUGUCGAGGAGGAGGUUUAUCGGAUUUUCGGCGGAUGCCUCCAAA [A33U A52G], 8900 ± 6300 µM. Still for that read-out and setting: to AUAAAAGCGCCAGAACUACAGAAAUGUAGUUGCCGAAGAGGAGGUUUAUCGAAUUUUCGGCGGAUGCCUCCAAA [A33C G37A] belongs 3920 ± 2800 µM.

As for AUAAAAGCGCCAGAACUACAGAAAUGUAGUUGACUAGGAGGAGGUUUAUCGAAUCUUCGGCGGAUGCCUCCAAA [G35U U55C], the KM was found to be 288 ± 180 µM. Same read-out and setting: to AUAAAAGCGCCAGAACUACAGAAAUGUAGUUUACGAGGAGGAGGUUUAUCGAAUUUUCGGCGGAUGCCUCUAAA [G32U C71U] belongs 5540 ± 1700 µM; to AUAAAAGCGCCAGAACUACAGAAAUGUAGUGGACGAGGAGGAGGUUUAUCGAAUUUUCGGCGGACGCCUCCAAA [U31G U65C], 3350 ± 2200 µM; to AUAAAAGCGCCAGAACUACAGAAAUGUAGUUACCGAGGAGGAGGUUUAUCGAAUUUUCGGCGGAUGCCUGCAAA [G32A A33C C70G], 52.7 ± 51 µM. Same read-out and setting: to AUAAAAGCGCCAGAACUACAGAAAUGUAGUUGCCGAGUAGGAGGUUUAUCGAAUUUUCGGCGGAUGCCUCCAAA [A33C G38U] belongs 58.7 ± 41 µM. Still for that read-out and setting: to AUAAAAGCGCCAGAACUACAGAAAUGUAGUUGACGUGGAGGAGGUUUAUCGAAUUUUCGGCGGAUACCUCCAAA [A36U G66A] belongs 55.3 ± 40 µM; to AUAAAAGCGCCAGAACUACAGAAAUGUAGUUGACAAUGAGGAGGUUUAUCGAAUUUUCGGCGGAUGCCUCCAAA [G35A G37U], 3390 ± 2000 µM. On to AUAAAAGCGCCAGAACUACAGAAAUGUAGUUGAGGAGGAGGAGGUUUAUCGAAUUUUCGGCGGAUGUCUCCAAA [C34G C67U], for which the KM is 37.1 ± 28 µM. On the same count and under the same terms, to AUAAAAGCGCCAGAACUACAGAAAUGUAGUUGACGAGAAGGAGGUUUAUCGAAUUUUCGGCGGAUGCCGCCAAA [G38A U69G] belongs 89.8 ± 85 µM. The same measure, in the same setting: to AUAAAAGCGCCAGAACUACAGAAAUGUAGUUGGCGAGGAGGAGGUUUAUCGAAUUUUCGGAGGAUGCCUCCAAA [A33G C61A] belongs 70.5 ± 43 µM.

As to AUAAAAGCGCCAGAACUACAGAAAUGUAGUUGACGAGGGGGAGGUUUAUCGAAUUUUCGGCGGAUGGCUCCAAA [A39G C67G], the KM was determined as 602 ± 300 µM. The same measure, in the same setting: the same measure for AUAAAAGCGCCAGAACUACAGAAAUGUAGUUAACGAGGAGUAGGUUUAUCGAAUUUUCGGCGGAUGCCUCCAAA [G32A G41U]: 7790 ± 4000 µM; for AUAAAAGCGCCAGAACUACAGAAAUGUAGUGGACGAGGAGGAGGUUUAUCGAAUAUUCGGCGGAUGCCUCCAAA [U31G U55A]: 556 ± 400 µM.

In a further data set the parent is B1. Description: self-cleavage kobs at 40 uM GlcN6P; higher = faster cleavage; RNA array. The settings on record: with glucosamine-6-phosphate. Summed up: as §1
AUAAAAGCGCCAGAACUACAGAAAUGUAGUUGACGAGGGGGAGUUUUAUCGAAUUUUCGGCGGAUGCCUCCAAA [A39G G44U]: the “self-cleavage kobs at 40 uM GlcN6P” value turned out to be 2.81e-05 ± 1.7e-05 s⁻¹. Still for that read-out and setting: the same measure for AUAAAAGCGCCAGAACUACAGAAAUGUAGUUUACGAGGAGGAGGUUUAUCGAAUUUUCGGCGGGUGCCUCCAAA [G32U A64G]: 2.04e-05 ± 1.8e-05 s⁻¹.

In another data set the parent is B1. Description: self-cleavage kobs at 640 uM GlcN6P; higher = faster cleavage; RNA array. The settings on record: with glucosamine-6-phosphate. Summed up:
as §1
As to AUAAAAGCGCCAGAACUACAGAAAUGUAGUUGACGAAGAGGAUGUUUAUCGAAUUUUCGGCGGAUGCCUCCAAA [G37A G43U], the “self-cleavage kobs at 640 uM GlcN6P” value came out at 2.13e-05 ± 1.3e-05 s⁻¹. The same measure, in the same setting: the same measure for AUAAAAGCGCCAGAACUACAGAAAUGUAGUUGACGAGAAGGAGGUUUAUCGAAUUUUCGGCGGAUGCCGCCAAA [G38A U69G]: 2.68e-05 ± 1.4e-05 s⁻¹.

In the next data set the parent is B1. Description: self-cleavage kobs at 2500 uM GlcN6P; higher = faster cleavage; RNA array. Particulars: with glucosamine-6-phosphate. Summed up: as §1
For AUAAAAGCGCCAGAACUACAGAAAUGUAGUUGACGACGAGGAGGUUUAUCGAACUUUCGGCGGAUGCCUCCAAA [G37C U54C], the “self-cleavage kobs at 2500 uM GlcN6P” value stood at 1.26e-05 ± 1e-05 s⁻¹.

In the next data set the parent is B1. Description: self-cleavage kobs at 160 uM GlcN6P; higher = faster cleavage; RNA array. Particulars: with glucosamine-6-phosphate. The procedure, abridged: as §1
For the variant AUAAAAGCGCCAGAACUACAGAAAUGUAGUUGACGAGAAGGAGGUUUAUCGAAUUUUCGGCGGAUGCCGCCAAA [G38A U69G], the “self-cleavage kobs at 160 uM GlcN6P” value worked out at 2.17e-05 ± 1.4e-05 s⁻¹. On the same count and under the same terms, the same measure for AUAAAAGCGCCAGAACUACAGAAAUGUAGUUAACGAGGAGUAGGUUUAUCGAAUUUUCGGCGGAUGCCUCCAAA [G32A G41U]: 2e-05 ± 1.1e-05 s⁻¹.

Source of the values: the supplement of paper PMC7125110.
